This is an account of results in paper PMC7751120.

These are yes or no findings as the source states them, for the method shown. Binding seen in cells or lysates may run through a third protein. These calls come from enrichment with a bait or labelling near it, and not all partners need be listed. Sequences can lack the tags named with a protein.

T1: RnfB with C-terminal His-tag (Acetobacterium woodii) (UniProt H6LC27)
T1 sequence: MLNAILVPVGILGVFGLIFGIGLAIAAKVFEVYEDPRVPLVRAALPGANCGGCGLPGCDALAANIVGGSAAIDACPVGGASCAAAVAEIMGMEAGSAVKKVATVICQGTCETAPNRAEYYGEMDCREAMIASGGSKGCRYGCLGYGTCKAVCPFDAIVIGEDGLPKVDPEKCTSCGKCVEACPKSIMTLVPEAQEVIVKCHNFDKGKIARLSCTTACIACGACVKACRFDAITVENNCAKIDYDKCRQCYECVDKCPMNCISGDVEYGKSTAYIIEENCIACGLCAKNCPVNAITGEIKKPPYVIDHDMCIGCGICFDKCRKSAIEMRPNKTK

T2: RnfG with C-terminal His-tag (Acetobacterium woodii) (UniProt H6LC30)
T2 sequence (chain, covalently bound FMN (residue not stated)): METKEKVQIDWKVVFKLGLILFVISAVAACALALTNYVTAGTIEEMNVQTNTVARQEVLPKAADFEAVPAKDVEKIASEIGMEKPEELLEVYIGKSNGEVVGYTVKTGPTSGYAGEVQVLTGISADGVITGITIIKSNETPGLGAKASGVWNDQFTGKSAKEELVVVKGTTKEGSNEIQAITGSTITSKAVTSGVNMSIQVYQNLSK

B1: RnfD (protein, UniProt H6LC31 1-318)
chain: MNELNLTVSSSPHIRAKHSTASIMQNVIIALLPALAVAGYVFGLWALALVAICVISSVATEAVIQKLLKKPITVNDWSAVVTGVLLAFNLPINAPWWIGVVGSVFAIAIVKQCFGGLGQNFINPALAARAFLLASWPGHMTSTAYIPLTDTVTTATPLALLKAGETGSMPSTLDLFTGLNGVYGCIGEISALALLIGGLYLIYKGIISWRIPTIYLLTIAIFALLVGQDPIVHMVSGGVMLGAFFMATDYASSPVTAKGQIIYAIGCGLITMIIRLYGGYPEGCSYSILLMNVATPLIERFTKERIYGVTKIKKEAKA
modifications: covalently bound FMN (residue not stated)
B2: RnfC with N-terminal Strep-tag (protein, UniProt H6LC32 1-443)
chain: MNVKHGTFKGGIHPPYRKESTAEVPLGFGKKPEMVIIPMSLHIGAPCTPIVKKGDTVFLGQRVGEPNGFVSVPVHASVSGKVIAVEERPHASGDRVMSVVIESDGLDTIDPSIKPYGTLEDMDADAIKKMVLNAGIVGLGGATFPTHVKLAIPPDKKVDCVVLNGAECEPYLTADHHLMTSQAEKVVMGLKLAMKSVGVEKGFIGVEDNKTDAIEALVKAIGNDSRLEVYSLHTKYPQGAEKQLIAAITGREVPSGALPADAGVVVMNVGTAAQIAESMITGLPLYKRYLTCTGDAIKNPQTIEIRIGVPFQSVIDQCGGFSSEPGKVISGGPMMGVTQFVTDIPVMKGTSGILCLTKESAKIATPSNCIHCGKCVGVCPIHLQPLNIAEYSQRNMWDKCESNNAMDCIECGSCSYICPAKRTLVSSIRVAKREIIAQRRKGN
B3: RnfA (protein, UniProt H6LC28 1-192)
chain: MTLIFIMISAIFVNNFVLSRFLGICPFLGVSKQVETAVGMGVAVTFVMALASAITYVVQYAILDPLSLGYLQTIAFILIIAALVQLVEMIIKKSSPSLYQALGVYLPLITTNCAVLGVALINIQNEYNFIETIFNGVGAALGFTLAIVLFAGIRERLETSAVPKALEGFPIALLTAGLMAIAFLGFSGMKLG

The target of the first assay is T1, RnfB with C-terminal His-tag (Acetobacterium woodii). As to the kind of experiment: affinity purification with mass spectrometry; Ni2+-NTA purification by the C-terminal His-tags on RnfB and RnfG from DDM-solubilised membranes of A. woodii Δrnf pMTL_8312_Ptet_rnf, anoxic, 4 °C, 50 mM Tris-HCl pH 8.0, 20 mM MgSO4, 0.02% DDM, 5 µM FMN; washed with 20 mM and eluted with 150 mM imidazole; pooled fractions E2 and E3 analysed by SDS-PAGE, Western blot and MALDI-TOF peptide mass fingerprinting.
On to B1, for which the binding entry is listed as “binds”.

Turning to B2, the binding entry was “binds”.

B3: the binding result was “binds”.

A further assay deals with T2, RnfG with C-terminal His-tag (Acetobacterium woodii). The description is as above.
Consider B1, for which the binding result was “binds”.

Regarding B2, the binding result is on record as “binds”.

As for B3, the binding result is “binds”.
